Measured values published in PubChem BioAssay AID2685 (National Center for Advancing Translational Sciences (NCATS), 2010).
The list shows a part of the results. Shown are side measurements of this screen, not its main read-out; they come without a call. Most of these compounds were active or inconclusive in the main read-out, so they are no random draw. Potencies come from curve fits of mixed quality, noted in brackets.

Test: qHTS Assay for Lipid Storage Modulators in Drosophila S3 Cells;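 on cell number change: cells counted by Cell Tracker Red CMTPX staining in the red channel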
Settings: BODIPY lipid droplet fluorescence, 18-24 h; for cell number change: measured here: cell count max response, cells fed with added oleic acid
Procedure, shortened: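 Laser-scanning cytometry quantifies lipid droplet accumulation (500–530 nm total intensity; droplet/cell object ratio) in oleic acid-fed (400 uM added) Drosophila S3 cells treated with a concentration series. 20 uM Triacsin C defined 100% inhibition.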

[1] = measured here: cell number channel AC50, cells fed with added oleic acid
[2] = measured here: lipid fluorescence (Fed channel) AC50, cells fed with added oleic acid

Compound	cell number change [%]	AC50 [1]	AC50 [2]
Cn1c2cc(B(O)O)sc2c2cnn(Cc3ccccc3F)c(=O)c21	46	23.1 µM [rising, partial curve, poor fit]	23.1 µM [rising, partial curve, poor fit]
Nc1nc2c(s1)CCc1ccccc1-2	5.32	–	6.51 µM [falling, single point]
O=C(c1cncc(Br)c1)N1CCN(c2ccc(N3CCOCC3)nn2)CC1	13.9	–	29.1 µM [rising, single point]
COc1ccc(CCNC(=O)C2=CCN(S(=O)(=O)c3ccc(F)cc3)CC2)cc1OC	-35.8	1.03 µM [falling, partial curve, poor fit]	–
N#CCCN(Cc1cccnc1)S(=O)(=O)c1ccc2ccccc2c1	-16.8	0.651 µM [falling, full curve, poor fit]	0.517 µM [falling, full curve]
CC(C[N+](C)(C)C)OC(=O)C1(c2ccccc2)CCCC1 (centres undefined)	13.5	–	18.4 µM [rising, single point]
CN(C)c1cccc(C(=O)OCCCC(=O)c2ccc(F)cc2)c1	-9.5	–	0.00651 µM [rising, full curve, poor fit]
O=C(Nc1ccccc1)N1CCC(C(=O)N(Cc2ccco2)Cc2cccs2)CC1	-44.7	23.1 µM [falling, single point]	18.4 µM [falling, single point]
O=C(COC(=O)Cc1ccsc1)Nc1ccc(Cl)cn1	-19.6	–	0.58 µM [falling, single point]
COC(=O)[C@H](Cc1ccccc1)[C@@H](C)OS(N)(=O)=O	22.3	–	–
NS(=O)(=O)c1ccc(NC(=O)CSc2nnc(NC3CC3)s2)cc1	-7	–	–
Cc1csc(NC(=O)c2ccc(C)c([N+](=O)[O-])c2)n1	-50	8.2 µM [falling, partial curve]	4.61 µM [rising, full curve]
CC/C(=N\NC(=O)COc1ccc(Br)cc1)c1ccc(OC)c(OC)c1	–	5.8 µM [rising, single point]	6.51 µM [rising, partial curve, poor fit]
CS(=O)(=O)N1CCc2cc(C(=O)Nc3ccccc3Cl)ccc21	22.3	–	–
COC(=O)Cn1nc(-c2ccccc2)c2ccccc21	-36.9	32.6 µM [falling, single point]	29.1 µM [falling, single point]
Cc1ccc(S(=O)(=O)N(C)C)cc1NC(=O)C(C)N(C)CCOc1ccc(Cl)cc1 (centres undefined)	3.81	–	0.206 µM [falling, single point]
CC(CNC(=O)C(C)C)NC(=O)C(C)C (centres undefined)	-29.3	–	4.11 µM [falling, single point]
O=C(Nc1nnc(CCc2ccccc2)s1)c1cccc(F)c1	-2.2	–	11.6 µM [rising, partial curve]
C[C@H](NC(N)=O)C(=O)N1CCN(S(=O)(=O)c2ccc3ccccc3c2)CC1	17.2	–	29.1 µM [rising, single point]
CCOC(=O)c1cc(NC(=O)Nc2ccccc2Cl)c(C)nc1C	-15.3	–	29.1 µM [falling, single point]

Compound	cell number change [%]	AC50 [1]	AC50 [2]
COc1cccc(Cn2cccc(NC(=O)NC3CCCCC3)c2=O)c1	-6.25	–	–
O=C(Cc1cccs1)Nn1c(Cc2cccs2)nc2ccccc2c1=O	-0.544	–	0.0058 µM [falling, full curve, poor fit]
O=C(O)C1CC=CCC1C(=O)NCCc1ccccc1 (centres undefined)	–	–	20.6 µM [falling, partial curve]
O=c1[nH]c(SCc2cccc([N+](=O)[O-])c2)nc2[nH]ncc12	42.1	–	0.13 µM [falling, full curve, poor fit]
Cc1nc2ccc(C(=O)O)cc2c2c1CC(CN)O2 (centres undefined)	3.7	–	–
CC(=O)c1ccc(S(=O)(=O)NCc2ccc(C(=O)N(C)CC(=O)Nc3cccc(F)c3)cc2)cc1	-7.39	–	–
CCOc1ccc(NCC(=O)c2ccc(C)cc2)cc1	-35.8	23.1 µM [falling, single point]	25.9 µM [falling, partial curve]
CNC(=S)N/N=C/c1cn(CCOc2ccccc2OC)c2ccccc12	1.59	–	1.16 µM [falling, single point]
CCc1nnc(NS(=O)(=O)c2ccc(NC(=O)CCC(=O)OC)cc2)s1	-4.72	–	3.26 µM [falling, single point]
CC1CCCN(C(=O)CSc2nnc3ccccn23)C1 (centres undefined)	-2.63	–	0.13 µM [rising, full curve, poor fit]
COc1cc2c(cc1OC)CN(C(=O)/C=C/c1ccc([N+](=O)[O-])cc1)CC2	2.92	–	11.6 µM [falling, single point]
Cc1c(C(=O)Nc2ccc3c(c2)CCC3)cccc1[N+](=O)[O-]	40.6	16.4 µM [rising, single point]	5.17 µM [rising, partial curve]
O=C(Nc1nc2ccc(S(=O)(=O)N3CCCCC3)cc2s1)c1cccnc1	71.1	29.1 µM [rising, single point]	6.51 µM [falling, single point]
O=C(CSc1nc(=O)n(CCCN2CCOCC2)c2c1CCCC2)Nc1ccc(F)cc1F	5.15	–	29.1 µM [rising, single point]
N=c1c2c(ncn1Cc1ccco1)Oc1cc(O)ccc1C2c1ccccc1 (centres undefined)	-30.2	0.411 µM [falling, full curve, poor fit]	10.3 µM [falling, partial curve, poor fit]
O=C(CSc1nnc(-c2cccnc2)n1-c1ccc(SC(F)F)cc1)N1CCCc2ccccc21	-30.8	20.6 µM [falling, single point]	0.00461 µM [falling, full curve, poor fit]
O=c1oc2ccccc2c(Nc2ccc(O)cc2)c1[N+](=O)[O-]	-24	–	4.11 µM [falling, partial curve, poor fit]
CCOC(=O)C1=C(COC(=O)/C=C/c2cccc(OC)c2)NC(=O)NC1C (centres undefined)	-13.5	–	–
Cn1c(SCC(=O)N2CCCc3ccccc32)nc2ccccc2c1=O	-56.1	25.9 µM [falling, partial curve, poor fit]	25.9 µM [falling, partial curve]
CCc1noc(C)c1C(=O)NC1CCCc2c1cnn2-c1cc(C)cc(C)c1 (centres undefined)	-19.9	–	–

Compound	cell number change [%]	AC50 [1]	AC50 [2]
O=C(OC1CCOC1=O)c1ccc2ccccc2n1 (centres undefined)	-12.7	–	29.1 µM [falling, partial curve]
Cc1nc(Cl)c(C(=O)Nc2cccc(F)c2)c(C)c1Cl	-0.155	–	2.06 µM [rising, partial curve, poor fit]
Cc1ccc(C(=O)Cn2nnc(-c3ccccc3)n2)cc1	57.2	29.1 µM [rising, single point]	0.651 µM [falling, single point]
CC(C)(C)c1ccc(/C=C/C(=O)N2CCCCC2)cc1	-12.7	–	8.2 µM [falling, partial curve]
Cc1nn(-c2ccccc2)c(C)c1NC(=O)COC(=O)c1ccc(Cl)c(S(N)(=O)=O)c1	6.08	–	–
O=C(NCc1ccncc1)c1cc(C(=O)C2CC2)c[nH]1	–	4.61 µM [rising, partial curve]	–
CCCCOc1ccccc1N1CCN(CCCN2C(=O)C3CCCN3C2=O)CC1 (centres undefined)	-3.04	–	29.1 µM [falling, single point]
NC1=C(c2ccc([N+](=O)[O-])cc2)C(=O)CO1	-17.6	–	3.66 µM [rising, single point]
Cc1ncc([N+](=O)[O-])n1CC(=O)Nc1ccccc1F	-1.05	–	–
C=CCOC(=O)C1=C(C)OC(N)=C(C#N)C1c1ccccc1F (centres undefined)	–	2.31 µM [rising, partial curve]	–
CCOC(=O)c1c(C)[nH]c(C2=NNC(=Nc3cccc(Cl)c3)SC2)c1C	-8.78	–	0.411 µM [falling, full curve]
COc1ccc(N=CC2=C(O)c3ccccc3C2=O)cc1	9.99	–	3.66 µM [rising, single point]
CC(C)OCCCn1c(=S)[nH]c2ccc(N3CCOCC3)cc2c1=O	–	0.58 µM [rising, single point]	0.58 µM [rising, single point]
O=C(Nc1ccc2c(c1)Cc1ccccc1-2)c1ccc(Br)o1	-37.7	29.1 µM [falling, single point]	25.9 µM [falling, single point]
N#CCSc1nnc(COc2cccc3ccccc23)n1-c1ccccc1	-23.6	–	–
Cc1ccc(-c2nc(CS(=O)CC(=O)NCCN3CCCC3)c(C)o2)cc1 (centres undefined)	-42.7	16.4 µM [falling, partial curve, poor fit]	23.1 µM [falling, partial curve]
COC(=O)CSc1nc(-c2cccs2)ccc1C#N	0.625	–	–
CCNC(=O)c1ccc(NC(=O)CC2SC(N3CCCC3)=NC2=O)cc1 (centres undefined)	-50	29.1 µM [falling, single point]	–
COc1ccc(OCc2cc(=O)[nH]c3ccccc23)cc1	6.67	0.00461 µM [rising, full curve, poor fit]	–
CC(C)NC(=S)NC(=O)c1ccc(Cl)cc1Cl	2.88	–	4.61 µM [rising, single point]

Five successive entries already listed, quoted:
Compound	cell number change [%]	AC50 [1]	AC50 [2]
Cc1nc(Cl)c(C(=O)Nc2cccc(F)c2)c(C)c1Cl	-0.155	–	2.06 µM [rising, partial curve, poor fit]
Cc1ccc(C(=O)Cn2nnc(-c3ccccc3)n2)cc1	57.2	29.1 µM [rising, single point]	0.651 µM [falling, single point]
CC(C)(C)c1ccc(/C=C/C(=O)N2CCCCC2)cc1	-12.7	–	8.2 µM [falling, partial curve]
Cc1nn(-c2ccccc2)c(C)c1NC(=O)COC(=O)c1ccc(Cl)c(S(N)(=O)=O)c1	6.08	–	–
O=C(NCc1ccncc1)c1cc(C(=O)C2CC2)c[nH]1	–	4.61 µM [rising, partial curve]	–
